Test results reported in PubChem BioAssay AID342 (DTP/NCI, 2004).
The list does not hold the whole screen: it is rich in T/C values a quarter to a half above the control, in often repeated tests (any T/C) and in doses without a T/C. Further doses and runs are listed elsewhere. T/C is the treated group as % of the vehicle group. Schedules are NCI's codes, read here as Q, the interval in days (D) or hours (H), X, the number of doses. Some schedules carry Z or #; the key to these is not given. Some T/C values are followed by the survivors on the day toxicity was checked, most often the fifth; without a count, all were alive then. Some doses were run more than once; their values stand side by side, smallest first. Brackets with × say how often a value occurs here. Some doses have a count of surviving animals in place of a T/C: the source holds a T/C of zero for them, seemingly a mark for toxic or unscored doses. Survivors were counted at the toxicity check, usually on the fifth day, unless a day is given; later deaths do not show.

System: Swiss mice, Sarcoma 180 sc, mean tumor weight T/C
Experiment: NCI In Vivo Anticancer Drug Screen. Data for tumor model Sarcoma 180 (subcutaneous) in Swiss mice
Settings: T/C endpoint: mean tumor weight, higher T/C = larger tumour; for T/C: evaluated on day 8
Outline: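 Mice bearing transplanted tumors were treated with compound, and survival or tumor size was measured. Values are expressed as the treated-group measurement (T) divided by the vehicle-treated control measurement (C).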

[1] = dose: 500.0 mg/kg/injection, schedule: Q01DX007 (ip), vehicle: carboxymethylcellulose (CMC)
[2] = dose: 250.0 mg/kg/injection, schedule: Q01DX007 (ip), vehicle: saline
[3] = dose: 250.0 mg/kg/injection, schedule: Q01DX007 (ip), vehicle: carboxymethylcellulose (CMC)
[4] = dose: 200.0 mg/kg/injection, schedule: Q01DX007 (ip), vehicle: carboxymethylcellulose (CMC)
[5] = dose: 150.0 mg/kg/injection, schedule: Q#A X014 (ip), vehicle: saline

CNCc1ccccc1
survivor count (dose: 220.0 mg/kg/injection, schedule: Q01DX007 (ip), vehicle: carboxymethylcellulose (CMC)): 2 of 6 | survivor count (dose: 330.0 mg/kg/injection, schedule: Q01DX007 (ip), vehicle: carboxymethylcellulose (CMC)): 0 of 6 | survivor count [1]: 0 of 6

OCC(F)(F)C(F)(F)C(F)(F)F
T/C [2]: 128 % of control | survivor count (dose: 1000.0 mg/kg/injection, schedule: Q01DX007 (ip), vehicle: saline): 0 of 6 and 4 of 8

CC[C@]1(O)C[C@H]2CN(CCc3c([nH]c4ccccc34)[C@@](C(=O)OC)(c3cc4c(cc3OC)N(C=O)[C@H]3[C@@](O)(C(=O)OC)[C@H](OC(C)=O)[C@]5(CC)C=CCN6CC[C@]43[C@@H]65)C2)C1
survivor count (dose: 0.25 mg/kg/injection, schedule: Q01DX007 (ip), vehicle: saline): 1 of 7

OCC1OC(n2cnc3c(=S)nc[nH]c32)C(O)C1O (centres undefined)
survivor count (dose: 75.0 mg/kg/injection, schedule: Q#A X014 (ip), vehicle: methylcellulose (MC)): 3 of 6

CC(=O)NNC(=O)c1ccccn1
survivor count (dose: 300.0 mg/kg/injection, schedule: Q01DX007 (ip), vehicle: water): 1 of 6

NC(Cc1cc(I)c(Oc2ccc(O)c(I)c2)c(I)c1)C(=O)O (centres undefined)
T/C (dose: 100.0 micrograms/kg/injection, schedule: Q01DX007 (sc), vehicle: steroid suspending solution): 130 % of control [4 of 6 alive]

CCCCCCCCCCCCCC1=C(O)C(=O)C(CC2=C(O)C(=O)C(CCCCCCCCCCCCC)=C(O)C2=O)=C(O)C1=O
T/C (dose: 12.5 mg/kg/injection, schedule: Q01DX007 (ip), vehicle: carboxymethylcellulose (CMC)): 129 % of control

O=C(c1ccccc1)C(C(=O)c1ccccc1)C(=O)c1ccccc1.O=C(c1ccccc1)C(C(=O)c1ccccc1)C(=O)c1ccccc1.[Cu]
survivor count (dose: 190.0 mg/kg/injection, schedule: Q01DX007 (ip), vehicle: carboxymethylcellulose (CMC)): 3 of 6 | survivor count (dose: 426.0 mg/kg/injection, schedule: Q01DX007 (ip), vehicle: carboxymethylcellulose (CMC)): 1 of 6

CNCCc1ccccc1
survivor count (dose: 166.0 mg/kg/injection, schedule: Q01DX007 (ip), vehicle: saline): 2 of 6 | survivor count [2]: 0 of 6 | survivor count (dose: 375.0 mg/kg/injection, schedule: Q01DX007 (ip), vehicle: saline): 0 of 6

CN1CC(=O)N=C1N
survivor count (dose: 2500.0 mg/kg/injection, schedule: Q#A X014 (ip), vehicle: water): 1 of 6

O=C(N/N=C/C=C/c1ccccc1)[C@H](O)[C@@H](O)C(=O)N/N=C/C=C/c1ccccc1
survivor count (dose: 375.0 mg/kg/injection, schedule: Q#A X014 (ip), vehicle: saline): 3 of 6

CN(/N=N/N(C)c1ccccc1)c1ccccc1
survivor count [3]: 3 of 6 | survivor count [1]: 1 of 6 | survivor count (dose: 1000.0 mg/kg/injection, schedule: Q01DX007 (ip), vehicle: carboxymethylcellulose (CMC)): 3 of 6 | survivor count (dose: 2000.0 mg/kg/injection, schedule: Q01DX007 (ip), vehicle: carboxymethylcellulose (CMC)): 0 of 6

COc1ccc2c(c[n+](C)c3c4cc5c(cc4ccc23)OCO5)c1OC
survivor count [4]: 3 of 6

C[C@]12CC[C@H](O)C[C@@H]1CC[C@@H]1[C@@H]2C(=O)C[C@]2(C)C3=CC(=O)O[C@H]3C[C@@H]12
T/C (dose: 20.0 mg/kg/injection, schedule: Q01DX007 (sc), vehicle: steroid suspending solution): 127 % of control

O=[N+]([O-])c1cccc2nsnc12
survivor count (dose: 50.0 mg/kg/injection, schedule: Q01DX007 (ip), vehicle: carboxymethylcellulose (CMC)): 2 of 6

CCOC(=O)Nc1ccc2c(c1)/C(=N\NC(N)=S)c1ccccc1-2
survivor count (dose: 110.0 mg/kg/injection, schedule: Q01DX007 (ip), vehicle: carboxymethylcellulose (CMC)): 2 of 6 | survivor count (dose: 165.0 mg/kg/injection, schedule: Q01DX007 (ip), vehicle: carboxymethylcellulose (CMC)): 2 of 6 | survivor count [3]: 1 of 6 | survivor count (dose: 375.0 mg/kg/injection, schedule: Q01DX007 (ip), vehicle: carboxymethylcellulose (CMC)): 0 of 6

CC[C@](C)(O)C(=O)O[C@H]1C(=O)O[C@@H]2C[C@H]3C(C)=C[C@H](O)[C@@H](O)[C@]3(C)[C@H]3[C@@]4(O)OC[C@]32[C@@H]1[C@@H](C)[C@H]4O
survivor count (dose: 13.5 mg/kg/injection, schedule: Q01DX007 (sc), vehicle: olive oil, sesame oil, peanut oil): 4 of 7

CO[C@H](C(=O)[C@@H](O)[C@@H](C)O)[C@@H]1Cc2cc3cc(OC4CC(OC5CC(O)C(O)C(C)O5)C(O)C(C)O4)c(C)c(O)c3c(O)c2C(=O)[C@H]1OC1CC(OC2CC(OC3CC(C)(O)C(O)C(C)O3)C(O)C(C)O2)C(O)C(C)O1 (some centres undefined)
survivor count (dose: 0.25 mg/kg/injection, schedule: Q01DX007 (ip), vehicle: water): 3 of 6 | survivor count (dose: 0.5 mg/kg/injection, schedule: Q01DX007 (ip), vehicle: water): 1 of 6 | survivor count (dose: 0.6 mg/kg/injection, schedule: Q01DX007 (ip), vehicle: water): 1 of 6 | survivor count (dose: 3.0 mg/kg/injection, schedule: Q01DX007 (ip), vehicle: water): 1 of 6 | survivor count (dose: 4.0 mg/kg/injection, schedule: Q01DX007 (ip), vehicle: water): 3 of 6 | survivor count (dose: 5.0 mg/kg/injection, schedule: Q01DX007 (ip), vehicle: water): 2 of 6

CCCCn1cnc2c(=S)nc[nH]c21
survivor count [4]: 0 of 6

CNC=O
T/C (dose: 65.0 mg/kg/injection, schedule: Q#A X014 (ip), vehicle: saline, list 1 of 4): 9, 11 [4 of 6 alive], 14, 16 [5 of 6 alive], 18 [4 of 6 alive], 18 [5 of 6 alive], 19 [4 of 6 alive], 20, 21 [4 of 6 alive], 22 (2×), 23 (2×), 23 [4 of 6 alive], 24 [5 of 6 alive], 25, 26, 27 [4 of 6 alive] (2×), 28, 28 [5 of 6 alive], 29, 29 [5 of 6 alive], 30 [4 of 6 alive], 31 [5 of 6 alive], 32 (2×), 33 (2×), 34, 34 [5 of 6 alive], 35, 36, 36 [4 of 6 alive], 37 [5 of 6 alive] (2×), 39 (2×), 40 [5 of 6 alive], 41, 42 [4 of 6 alive] (2×), 44, 45, 47, 50, 58, 63 % of control | T/C (dose: 65.0 mg/kg/injection, schedule: Q#A X014 (ip), vehicle: saline, list 2 of 4): 5, 10, 12, 15, 16, 18, 19 [5 of 6 alive], 20 [4 of 6 alive], 21, 21 [5 of 6 alive], 22, 22 [4 of 6 alive], 23 (3×), 25 (2×), 26 [5 of 6 alive], 27, 27 [5 of 6 alive], 28, 28 [4 of 6 alive], 29, 30, 31 [5 of 6 alive], 32 (2×), 33 (2×), 34, 34 [4 of 6 alive], 34 [5 of 6 alive], 35 [5 of 6 alive], 36, 36 [4 of 6 alive], 37 [4 of 6 alive], 38, 39 [5 of 6 alive] (2×), 40 [5 of 6 alive], 41, 42 (2×), 44, 45, 48, 50, 58, 73 % of control | T/C (dose: 65.0 mg/kg/injection, schedule: Q#A X014 (ip), vehicle: saline, list 3 of 4): 7, 10, 13, 15 [5 of 6 alive], 17, 18, 19, 20, 21, 21 [4 of 6 alive], 22, 22 [4 of 6 alive], 23, 23 [5 of 6 alive], 24, 25, 26 (2×), 27 [4 of 6 alive], 28 (2×), 28 [4 of 6 alive], 29, 30 [4 of 6 alive], 31, 32, 32 [5 of 6 alive], 33 (2×), 34 (3×), 35 [4 of 6 alive], 36, 37 (2×), 38, 39, 39 [5 of 6 alive], 40 [5 of 6 alive], 42, 42 [4 of 6 alive], 43, 44, 46, 48 [4 of 6 alive], 52, 60 [5 of 6 alive], 76 % of control | T/C (dose: 65.0 mg/kg/injection, schedule: Q#A X014 (ip), vehicle: saline, list 4 of 4): 9, 10 [5 of 6 alive], 13 [4 of 6 alive], 16 [4 of 6 alive], 17, 18, 19 [5 of 6 alive], 20, 21, 22, 22 [5 of 6 alive] (2×), 23 (2×), 24, 25 [5 of 6 alive], 26, 26 [5 of 6 alive], 27, 28 [4 of 6 alive], 28 [5 of 6 alive], 29, 29 [4 of 6 alive], 30, 31, 32 (2×), 33 (2×), 34 (2×), 35 [5 of 6 alive], 36 [4 of 6 alive], 36 [5 of 6 alive], 37 (2×), 38 [5 of 6 alive], 39 (2×), 41 [4 of 6 alive], 42 (2×), 43, 44, 46 [5 of 6 alive], 49, 55 [4 of 6 alive], 61, 87 % of control | survivor count (dose: 65.0 mg/kg/injection, schedule: Q#A X014 (ip), vehicle: saline): 1 of 6, 2 of 6, 3 of 6 | T/C [5]: 1, 1 [4 of 6 alive], 2 [5 of 6 alive], 3 [5 of 6 alive] (2×), 4 [4 of 6 alive], 4 [5 of 6 alive], 5 [4 of 6 alive] (4×), 5 [5 of 6 alive] (2×), 6, 6 [4 of 6 alive], 7 (2×), 7 [5 of 6 alive], 8, 8 [4 of 6 alive] (3×), 8 [5 of 6 alive], 9 [4 of 6 alive] (2×), 10 [4 of 6 alive] (6×), 10 [5 of 6 alive], 11 [4 of 6 alive] (2×), 12, 12 [5 of 6 alive], 13, 13 [4 of 6 alive] (2×), 13 [5 of 6 alive], 14, 15, 17 [5 of 6 alive] (2×), 18, 19 (3×), 23, 24 [4 of 6 alive], 33 [4 of 6 alive], 39 % of control [4 of 6 alive] | survivor count [5]: 1 of 6, 2 of 6, 3 of 6 | survivor count (dose: 325.0 mg/kg/injection, schedule: Q01DX007 (ip), vehicle: saline): 3 of 6
